# Results of single-concentration screens

By UniProt entry, the sequences of proteins in these tests, tags left out. Residues count along the entry.
UniProt Q4DA54, 1-478: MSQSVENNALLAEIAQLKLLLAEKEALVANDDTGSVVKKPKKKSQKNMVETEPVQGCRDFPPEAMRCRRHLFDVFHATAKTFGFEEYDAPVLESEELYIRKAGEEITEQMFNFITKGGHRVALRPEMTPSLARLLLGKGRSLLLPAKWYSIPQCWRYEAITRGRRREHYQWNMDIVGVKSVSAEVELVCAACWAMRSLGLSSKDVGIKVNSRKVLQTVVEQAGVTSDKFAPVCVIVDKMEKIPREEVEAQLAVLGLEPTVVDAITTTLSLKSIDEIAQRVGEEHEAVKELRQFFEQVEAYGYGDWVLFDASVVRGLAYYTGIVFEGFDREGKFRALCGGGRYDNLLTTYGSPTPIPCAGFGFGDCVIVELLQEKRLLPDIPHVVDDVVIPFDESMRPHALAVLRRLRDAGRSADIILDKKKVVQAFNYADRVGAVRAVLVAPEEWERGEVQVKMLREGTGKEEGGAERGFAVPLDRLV
UniProt A4I591, 1-473: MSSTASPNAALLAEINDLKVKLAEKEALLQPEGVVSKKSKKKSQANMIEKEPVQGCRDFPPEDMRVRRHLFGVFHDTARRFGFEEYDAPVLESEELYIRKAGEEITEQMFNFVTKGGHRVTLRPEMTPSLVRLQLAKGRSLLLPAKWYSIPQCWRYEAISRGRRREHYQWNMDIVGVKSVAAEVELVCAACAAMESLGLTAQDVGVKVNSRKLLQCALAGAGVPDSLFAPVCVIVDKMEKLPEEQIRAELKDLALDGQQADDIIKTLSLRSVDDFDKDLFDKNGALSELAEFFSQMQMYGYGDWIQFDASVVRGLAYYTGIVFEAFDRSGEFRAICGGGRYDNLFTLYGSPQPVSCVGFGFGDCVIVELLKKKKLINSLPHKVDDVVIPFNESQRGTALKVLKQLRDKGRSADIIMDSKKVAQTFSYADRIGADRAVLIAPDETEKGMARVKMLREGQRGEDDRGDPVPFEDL
UniProt Q8IDJ8, 1-583: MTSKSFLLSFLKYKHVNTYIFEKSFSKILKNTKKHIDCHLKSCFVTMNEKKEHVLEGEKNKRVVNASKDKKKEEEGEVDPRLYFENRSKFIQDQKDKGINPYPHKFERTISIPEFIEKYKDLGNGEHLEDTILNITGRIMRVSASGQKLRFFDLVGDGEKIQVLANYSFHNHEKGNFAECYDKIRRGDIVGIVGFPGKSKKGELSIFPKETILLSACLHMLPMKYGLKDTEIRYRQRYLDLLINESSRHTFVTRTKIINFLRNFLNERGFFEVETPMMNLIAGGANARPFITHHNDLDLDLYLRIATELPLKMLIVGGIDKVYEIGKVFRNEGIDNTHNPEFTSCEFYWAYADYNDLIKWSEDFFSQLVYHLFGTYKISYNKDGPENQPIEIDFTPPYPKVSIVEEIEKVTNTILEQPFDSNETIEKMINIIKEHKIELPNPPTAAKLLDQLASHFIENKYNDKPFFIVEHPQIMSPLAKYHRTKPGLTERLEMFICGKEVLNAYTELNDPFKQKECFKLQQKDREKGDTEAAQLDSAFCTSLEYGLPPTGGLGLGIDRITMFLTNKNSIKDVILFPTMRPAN
UniProt P9WNZ1, whole entry: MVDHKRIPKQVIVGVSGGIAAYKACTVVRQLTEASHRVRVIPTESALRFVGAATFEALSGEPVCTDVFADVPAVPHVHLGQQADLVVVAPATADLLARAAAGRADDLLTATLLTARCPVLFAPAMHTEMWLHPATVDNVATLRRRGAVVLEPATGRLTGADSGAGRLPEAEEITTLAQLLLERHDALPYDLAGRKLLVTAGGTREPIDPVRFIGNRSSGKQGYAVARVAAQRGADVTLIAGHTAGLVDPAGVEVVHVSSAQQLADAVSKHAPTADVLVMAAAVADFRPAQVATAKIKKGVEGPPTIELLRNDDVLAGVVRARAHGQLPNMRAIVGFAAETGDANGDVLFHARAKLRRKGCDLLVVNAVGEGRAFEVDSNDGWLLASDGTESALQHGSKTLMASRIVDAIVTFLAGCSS

Each number is a percent effect as filed. The record does not define 0% and 100%; most values in the screen are far below 50% and negative numbers occur (in some assays of this library far below -100). Compounds were drawn at random from those tested, without regard to their results. Two or more numbers in one place are separate tests of the same structure; such repeats can differ widely. A dash means the value is not listed here; it may have been measured.

A: 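Enzyme assay of histidyl-tRNA synthetase; the read-out is not stated. Target: Histidine-tRNA ligase, Trypanosoma cruzi CL Brener (UniProt Q4DA54). Compounds at 30 µM. Higher reads as stronger inhibition (inferred: compounds with an IC50 in retests scored well above the rest). Size under these conditions: about 69,000 compounds, about 31 of them at 50% or above in at least one test.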
B: 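Histidine-tRNA ligase, Leishmania infantum (UniProt A4I591). Enzyme assay of histidyl-tRNA synthetase; the read-out is not stated. Compounds at 30 µM. Higher reads as stronger inhibition (inferred: compounds with an IC50 in retests scored well above the rest). The assay is labelled LdHisRS but filed under L. infantum. Size under these conditions: about 69,000 compounds, about 410 of them at 50% or above in at least one test.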
C: 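Assay of Toxoplasma gondii numbers, read through their beta-galactosidase reporter with a colour substrate. Concentration: 10 µM. Higher reads as fewer parasites (inferred from which compounds were picked for retests). Of about 67,000 compounds tested this way, about 260 (0.38%) reached 50% or more in at least one test.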
D: 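Lysine-tRNA ligase, Plasmodium falciparum 3D7 (UniProt Q8IDJ8). Enzyme assay of the cytosolic lysyl-tRNA synthetase in 384-well plates, read by luminescence. Compounds at 30 µM. Direction is inferred from only a few compounds that gave an IC50; most scored high, so higher reads as stronger inhibition. Size under these conditions: about 69,000 compounds, about 49 of them at 50% or above in at least one test.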
E: 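Coenzyme A biosynthesis protein CoaBC, Mycobacterium tuberculosis (UniProt P9WNZ1). Enzyme assay of CoaBC with a phosphate dye (Biomol Green) read at 650 nm. Concentration: 30 µM. Direction is inferred from only a few compounds that gave an IC50; most scored high, so higher reads as stronger inhibition. Most strong results did not repeat in a second test. Size under these conditions: about 67,000 compounds, about 40 of them at 50% or above in at least one test.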

| compound | A | B | C | D | E |
|---|---|---|---|---|---|
| `Cc1cccc(C(C(=O)N(C)Cc2ccon2)N(C)C)c1` (stereo not given) | 3.352 | 2.083 | 4.247 | -0.2669 | -0.2571 |
| `O=C(O)C(F)(F)F.O=C(O)C(F)(F)F.O=C(O)C(F)(F)F.[H][C@@]12C[C@@H](Oc3cncnc3)CN1CCN(Cc1cccnc1)C2` | - | - | -13.41 | - | - |
| `[H][C@]12CC[C@](O)(CC1)C(COC)N2C(=O)N1CCOCC1` (stereo not given in full) | - | - | -2.787 | - | - |
| `COc1c(C)cnc(CN2CCC(N(C)S(C)(=O)=O)CC2)c1C` | -5.714 | 7.692 | 0.3839 | 1.189 | 2.389 |
| `CNc1nc2c(s1)C(c1ccccc1F)CC(=O)N2` (stereo not given) | 14.91 | 70 | 10.05 | 79.15 | 1.392 |
| `Cc1c(C(=O)NCC2CCS(=O)(=O)C2)cnn1-c1ccccc1` (stereo not given) | 5.764 | 5.357 | 0.2936 | 0.5483 | 4.545 |
| `Cn1cc(-c2nc(CN3CCc4c(ncn4C4CC4)C3)cs2)cn1` | 5.703 | 6.25 | 8.12 | 0.3909 | 7.378 |
| `Cc1nn(C)c(C)c1C1CCCN1Cc1noc(C2CC2)n1` (stereo not given) | 2.273 | 22.73 | 1.444 | 4.189 | -6.511 |
| `O=C(NC1CCCC1)N1CCCCC1c1nc(C2CC2)no1` (stereo not given) | 7.921 | 15.22 | - | 5.593 | 2.309 |
| `COc1cc(CCNC(=O)NCCC2CCCO2)ccc1C` (stereo not given) | 0 | 11.29 | 8.092 | 1.344 | 6.846 |
| `Cc1ncsc1CN1CC[C@H]2OCC[C@@]2(C(=O)NCC2CC2)C1` | -2.151 | 13.27 | - | 2.728 | 12 |
| `CCOCCn1nc(C)cc1C(=O)N1CCOCC(CO)C1` (stereo not given) | -3.333 | 17.31 | -0.4616 | -0.5319 | 4.478 |
| `O=C(Nc1ccc(-n2cccn2)cc1)N1C[C@H](O)[C@@H](N2CCOCC2)C1` | 7.514 | 17.02 | -6.943 | 2.746 | 2.481 |
| `COCCc1noc(CN2CCC(c3ccccc3C(=O)O)C2)n1` (stereo not given) | 5.288 | 21.95 | 12.2 | 1.078 | 4.962 |
| `O=C1O[C@@H]2CN(c3ccc(Cl)cn3)C[C@@H]2N1CCc1ccc(F)cc1` | 1.622 | 8.219 | - | -2.805 | 23.64 & 15.87 |
| `CCCS(=O)(=O)N1CCOC2(CCCN(c3ccccn3)C2)C1.O=C(O)C(F)(F)F` (stereo not given) | - | - | 0.6711 | - | - |
| `Cc1nc(COc2ccc(CNCC3CN(C)CCO3)cc2)cs1` (stereo not given) | 3.422 | -34.38 | -1.891 | -5.183 | 2.635 |
| `O=c1ccc2c([nH]1)CCN(S(=O)(=O)c1ccc3c(c1)CCCC3)C2` | 9.278 | 24.35 | 6.049 | 1.528 | -1.903 |
| `CC(=O)NCCOc1c(Cl)cccc1Cl` | 1.754 | 8.929 | 11.08 | 5.607 | 1.734 |
| `Cc1nc([C@@H]2C[C@@H]3CCN(C(=O)c4occc4C)C[C@H]3O2)no1` | 3.784 | -3.774 | - | -7.499 | 3.173 |
| `CC(O)CNC(=O)NCc1ccc(N2CCNC(=O)C2)cc1` (stereo not given) | 3.053 | 49.32 | 6.988 | 10.12 | 0.4819 |
| `CCn1/c(=N/C(=O)CSCC(=O)Nc2nccs2)sc2ccccc21` | 3.093 | 10.43 | 13.9 | 7.594 | -3.171 |
| `CCN1CC2(CC1=O)CN(Cc1ccsc1)CCN(C(=O)C(C)C)C2` (stereo not given) | 1.22 | 10.26 | - | 1.392 | 1.754 |
| `CCCN(CCO)S(=O)(=O)c1ccc2[nH]c(=O)[nH]c2c1` | 1.13 | 5.594 | 11.65 | 0.5377 | -1.937 |
| `O=C(CN1CCCC(Cn2cncn2)C1)NCCCc1ccccc1` (stereo not given) | 6.78 | 12.07 | -17.43 | 1.683 | 4.178 |
| `O=C(O)C(F)(F)F.O=C(O)C(F)(F)F.[H][C@@]12C[C@@H](C(=O)NC)N(C(C)C)[C@]1([H])CN(Cc1csc(C)n1)C2` | - | - | -14.1 | - | - |
| `Cc1ccnc(N2C[C@@H]3CC[C@H](C2)N(CC2CCC2)C3=O)n1` | -1.064 | 34.38 | - | -2.227 | 4.233 & 21.48 |
| `CNc1nc(CNC(=O)Nc2cccc(CN(C)C)c2)cs1` | 7.289 | 14.68 | 4.874 | 1.367 | 8.842 |
| `[H][C@]12CC[C@]([H])(CN(c3nc(C)nc4sccc34)C1)[C@@H]2OC` | - | - | 8.834 | - | - |
| `Cc1nn2c(NC(=O)CSc3ncccn3)csc2nc1=O` | 3.96 | 7.609 | -14.69 | 2.16 | 0.6053 |
| `Fc1cccc(CN2CCC3(CCCN3c3ncccn3)CC2)c1.O=C(O)C(F)(F)F` | - | - | 8.01 | - | - |
| `COc1cc(Oc2cnc3ccccc3n2)ccc1CN1CCCC1` | -11.59 | 9.836 | 10.1 | 5.439 | 5.622 |

Repeated from the top, 2 entries:

compound,A,B,C,D,E
Cc1cccc(C(C(=O)N(C)Cc2ccon2)N(C)C)c1 (stereo not given),3.352,2.083,4.247,-0.2669,-0.2571
O=C(O)C(F)(F)F.O=C(O)C(F)(F)F.O=C(O)C(F)(F)F.[H][C@@]12C[C@@H](Oc3cncnc3)CN1CCN(Cc1cccnc1)C2,-,-,-13.41,-,-

From ChEMBL document CHEMBL3988442, “University of Dundee, Small-Polar-MMV Screening Library” (2021).